The results in this text go back to publication PMC5422739.

Experiment [1] concerns the target T1, HTE20 (20th exon of human tropoelastin) (human) (UniProt P15502).
T1 sequence: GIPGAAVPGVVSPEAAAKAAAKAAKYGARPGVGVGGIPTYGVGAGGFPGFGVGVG
The experiment is described as follows: ELISA; HTE17-20, HTE20, HTE20N, HTE20C or BSA coated (1 μM/well); GST tagged LigB4 or LigB12 titrated 0 to 10 μM, 1 h at 37°C; HRP anti-GST; KD from a saturation fit of OD630; both purified. For orientation: ELISA stands for enzyme-linked immunosorbent assay.

Experiment [2] addresses T2, HTE20C (the last 28 residues of HTE20, amino acids 385–412 of HTE) (human) (UniProt P15502).
T2 sequence: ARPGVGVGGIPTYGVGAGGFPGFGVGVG
The description is as above.

No constants are given. Whether binding was seen depends on the method and setting. For some assays here: Binding calls can cover weak binding; strength is not graded here.

Consider “GST tagged LigB4 (amino acids 307–403 in LigB) (L. interrogans serovar Pomona) (domain or fragment)”, for which the binding entry in experiment [1] is reported as “binds”; in experiment [2], “no binding (tested: 10 μM)”.
